# Results of single-concentration screens

The chains behind the UniProt entries cited, without tags or fusion partners. Residues count along the entry.
UniProt Q4DA54, 1-478: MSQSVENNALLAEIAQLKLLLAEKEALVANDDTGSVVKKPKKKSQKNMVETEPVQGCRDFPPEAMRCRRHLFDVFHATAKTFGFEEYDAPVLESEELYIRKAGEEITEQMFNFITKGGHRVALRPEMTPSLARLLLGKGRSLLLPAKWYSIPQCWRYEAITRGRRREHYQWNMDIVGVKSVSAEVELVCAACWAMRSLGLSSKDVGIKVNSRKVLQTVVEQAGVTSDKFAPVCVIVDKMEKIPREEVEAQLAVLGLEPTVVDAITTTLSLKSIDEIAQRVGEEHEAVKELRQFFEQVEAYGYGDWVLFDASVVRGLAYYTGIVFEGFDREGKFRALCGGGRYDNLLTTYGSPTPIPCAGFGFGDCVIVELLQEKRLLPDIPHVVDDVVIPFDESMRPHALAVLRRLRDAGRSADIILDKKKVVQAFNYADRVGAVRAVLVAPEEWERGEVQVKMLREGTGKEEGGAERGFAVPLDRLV
UniProt P9WNZ1, whole entry: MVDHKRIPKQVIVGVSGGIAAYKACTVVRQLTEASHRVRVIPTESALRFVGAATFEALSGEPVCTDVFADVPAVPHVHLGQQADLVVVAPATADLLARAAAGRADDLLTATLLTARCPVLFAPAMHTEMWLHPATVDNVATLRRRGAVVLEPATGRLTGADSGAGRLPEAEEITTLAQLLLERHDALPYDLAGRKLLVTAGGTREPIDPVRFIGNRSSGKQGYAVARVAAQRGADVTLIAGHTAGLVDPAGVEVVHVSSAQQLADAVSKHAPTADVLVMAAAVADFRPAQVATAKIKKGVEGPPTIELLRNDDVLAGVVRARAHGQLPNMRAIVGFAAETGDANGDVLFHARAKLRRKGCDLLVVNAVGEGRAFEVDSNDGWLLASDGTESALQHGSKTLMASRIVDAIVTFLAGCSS
UniProt A4I591, 1-473: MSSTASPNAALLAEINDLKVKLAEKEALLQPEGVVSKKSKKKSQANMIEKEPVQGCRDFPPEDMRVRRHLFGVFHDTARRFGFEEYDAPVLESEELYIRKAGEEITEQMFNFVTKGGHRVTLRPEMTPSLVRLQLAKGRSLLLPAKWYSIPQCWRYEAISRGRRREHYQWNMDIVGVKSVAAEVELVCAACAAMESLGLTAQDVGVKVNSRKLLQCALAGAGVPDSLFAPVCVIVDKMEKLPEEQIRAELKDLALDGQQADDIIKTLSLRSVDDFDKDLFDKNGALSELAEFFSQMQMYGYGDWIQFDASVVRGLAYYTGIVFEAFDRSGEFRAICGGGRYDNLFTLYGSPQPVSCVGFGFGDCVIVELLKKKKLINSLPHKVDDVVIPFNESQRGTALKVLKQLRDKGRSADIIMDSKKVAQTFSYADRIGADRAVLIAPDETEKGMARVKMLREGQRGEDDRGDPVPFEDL

From ChEMBL document CHEMBL3988442, “University of Dundee, Small-Polar-MMV Screening Library” (2021).

Values are the deposited “Percent Effect”, in %. The record does not define 0% and 100%; most values in the screen are far below 50% and negative numbers occur (in some assays of this library far below -100). This is an unselected part of the compounds tested. Two or more numbers in one place are separate tests of the same structure; such repeats can differ widely. A dash means the value is not listed here; it may have been measured.

TcHisRS: 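Histidine-tRNA ligase, Trypanosoma cruzi CL Brener (UniProt Q4DA54). Enzyme assay of histidyl-tRNA synthetase; the read-out is not stated. Compounds at 30 µM. Higher reads as stronger inhibition (inferred: compounds with an IC50 in retests scored well above the rest). Of about 69,000 compounds tested this way, about 31 (0.045%) reached 50% or more in at least one test.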
Leishmania in macrophages: 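Cell assay of Leishmania donovani living inside macrophages; the read-out is not stated. Concentration: 30 µM. The record gives no direction; compounds that gave an IC50 in retests scored well above the rest, so higher reads as stronger inhibition. Size under these conditions: about 69,000 compounds, about 1,000 of them at 50% or above in at least one test.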
Toxoplasma: 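Assay of Toxoplasma gondii numbers, read through their beta-galactosidase reporter with a colour substrate. Tested at 10 µM. Higher reads as fewer parasites (inferred from which compounds were picked for retests). About 67,000 compounds were tested under these conditions; 0.38% (about 260) showed 50% or more at least once.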
CoaBC: 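Coenzyme A biosynthesis protein CoaBC, Mycobacterium tuberculosis (UniProt P9WNZ1). Enzyme assay of CoaBC with a phosphate dye (Biomol Green) read at 650 nm. Concentration: 30 µM. Direction is inferred from only a few compounds that gave an IC50; most scored high, so higher reads as stronger inhibition. Most strong results did not repeat in a second test. About 67,000 compounds were tested under these conditions; 0.06% (about 40) showed 50% or more at least once.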
LiHisRS: 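Enzyme assay of histidyl-tRNA synthetase; the read-out is not stated. Target: Histidine-tRNA ligase, Leishmania infantum (UniProt A4I591). Compounds at 30 µM. Direction is inferred from retests: higher values go with stronger inhibition. The assay is labelled LdHisRS but filed under L. infantum. Size under these conditions: about 69,000 compounds, about 410 of them at 50% or above in at least one test.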

| # | structure | TcHisRS | Leishmania in macrophages | Toxoplasma | CoaBC | LiHisRS |
|---|---|---|---|---|---|---|
| 1 | `CCn1cc(NC(=O)C2CCN(CC(=O)N3CCOCC3)CC2)cn1` | -1.515 | 11.58 | 1.067 | 8.848 | -1.515 |
| 2 | `CCCS(=O)(=O)N1Cc2nccn2CC(CN(C)C)C1` (stereo not given) | 8.696 | - | - | -2.804 | 27.63 |
| 3 | `CCn1cnnc1C1CCN(C(=O)c2cc3c(s2)CCOC3)CC1` | -1.754 | 10.52 | 7.562 | 7.908 | 3.636 |
| 4 | `O=S(=O)(N1CCCCCC1)N1CCCN(CC2CCCO2)CC1` (stereo not given) | 5.699 | -14.62 | -4.374 | 4.688 | -1.124 |
| 5 | `CC(C)N(C)C(=O)C1CSCN1S(=O)(=O)c1ccccc1F` (stereo not given) | 3.743 | 51.74 | 1.061 | 3.913 | 8.901 |
| 6 | `Cc1nnsc1C(=O)N1CCCC(n2nnc3cc(F)ccc32)C1` (stereo not given) | 2.128 | -2.657 | -2.043 | 0 | 17.71 |
| 7 | `CN(Cc1nc2ccccc2[nH]1)C(=O)C(C)(C)n1cc(Cl)cn1` | 3.448 | 4.367 | 2.947 | 8.73 | 6.25 |
| 8 | `CCc1c(C)n(CCC#N)c2nc3ccccc3n2c1=O` | 10.31 | 4.474 | -2.356 | -3.538 | 12.09 |
| 9 | `N#Cc1cccc(S(=O)(=O)NC2CCN(CC(F)(F)F)C2)c1` (stereo not given) | 13.94 | 9.383 | -32.13 | 0.7299 | 15.56 |
| 10 | `CCCc1cc(C(=O)N(C)Cc2ccc(OC)c3ncccc23)n(C)n1` | -1.02 | 32.96 | 18.49 | 0.8485 | 16.13 |
| 11 | `O=C1C(N2CCOCC2)CCCN1Cc1cccc(C(F)(F)F)c1` (stereo not given) | 1.493 | -23.89 | 9.522 | 4.391 | -6.024 |
| 12 | `CC(C)(CNC(=O)C1CCCN(C(N)=O)C1)c1cccc(Cl)c1` (stereo not given) | 5.051 | -18.43 | 4.779 | -4.862 | -1.587 |
| 13 | `CCCN1CCc2[nH]cnc2C12CCN(C(=O)Cn1ccnc1C)CC2` | 4.819 | 22.85 | -15.99 | -0.2475 | 12 |
| 14 | `CN(C)CC1(O)CCCN(C(=O)Cn2ccc3ccccc32)CC1` (stereo not given) | 12.35 | -8.699 | 11.27 | 7.485 | 15.69 |
| 15 | `Cc1cc(C)n(C2CN(c3ncnc4c3CCNCC4)C2)n1` | 7.216 | 22.53 | 13.38 | 1.415 | 20.88 |
| 16 | `COc1ccccc1OC1CN(C(=O)c2ccc(C(C)=O)s2)C1` | 0 | -43.68 | -37.97 | 2.911 | 8.434 |
| 17 | `CCSCc1nc(O)c2nnn(C3CCN(Cc4ccoc4)CC3)c2n1` | 4.215 | 26.11 | -1.069 | -1.914 | 10.07 |
| 18 | `Cc1nn(C)c(C)c1C1CCCN1Cc1nc(C)c2ccccc2n1` (stereo not given) | 13.16 | 22.84 | -5.006 | 7.833 | 45.95 |
| 19 | `COCC1CC2(CCN(c3cccc(C)n3)CC2)CN1c1ncccn1` (stereo not given) | 1.508 | - | - | 6.559 | 9.901 |
| 20 | `Cc1cc(N2Cc3cnn(CCO)c3C2)nc(-c2ccccc2O)n1` | 6.878 | 1.144 | -9.58 | 4.573 | 1.333 |
| 21 | `COc1cccc2c1OCC(C(=O)N1CCSCC1)C2` (stereo not given) | 1.508 | -1.958 | -14.19 | 0.1206 | 15.2 |
| 22 | `Cc1nc(C)n(CC2CN(Cc3cccc4c3OCCO4)CCO2)n1` (stereo not given) | -0.7576 | 23.28 | 3.453 | 12.19 | 40.91 |
| 23 | `CCc1cnc(CN(C(C)=O)C2CCN(CCN3CCCCC3)C2)o1` (stereo not given) | 6.358 | 29.94 | -41.57 | 8.046 | 13.39 |
| 24 | `CCN(Cc1ccc2c(c1)OCO2)C(=O)NC(C)Cn1cccn1` (stereo not given) | 0.7634 | -8.819 | 1.588 | 2.169 | 10.96 |
| 25 | `[H][C@]12CN(C(=O)c3ccc(C)c(Cl)c3)CC[C@@]1(O)CCN(C(=O)N(C)C)C2` | - | -26.34 | -8.011 | - | - |
| 26 | `COc1nccnc1N1CCN(Cc2ccc3c(c2)OCO3)C(=O)C1` | 4.95 | -8.743 | 4.641 | -3.752 | 6.849 |
| 27 | `Cc1n[nH]c(C)c1CC(=O)N1CC[C@@](C)(O)[C@H](Oc2ccccc2)C1` | 6.818 | 20.27 | 5.958 | -0.2466 | 11.27 |
| 28 | `Cc1cnc(C(=O)N2CC[C@@H]3CN(c4ncccn4)CCO[C@@H]3C2)cn1` | 3.922 | - | - | 3.75 | 10 |
| 29 | `CC(C)N(CCNC(=O)c1ccc(S(=O)(=O)NC2CC2)cc1)C(C)C` | 8.671 | -18.06 | -13.75 | -2.481 | 12.77 |
| 30 | `O=C(O)C(F)(F)F.O=C(O)C(F)(F)F.[H][C@@]12CCN(Cc3ccncc3)C[C@@]1([H])O[C@@H](C(=O)NC)C2` | - | 4.233 | 1.833 | - | - |
| 31 | `Cc1cc(C(=O)N(C)C(C)CC(C)C)on1` (stereo not given) | 3.784 | 2.779 | 7.506 | 7.273 | 0 |
| 32 | `CN1CCN(Cc2cccnc2)C2(CCN(c3ncc(F)cn3)C2)C1=O` (stereo not given) | 2.51 | - | - | 4.545 | 16.04 |
| 33 | `NCc1cccc(-c2cccnc2C(=O)NCCN2CCOCC2)c1` | 4.135 | 5.912 | 6.589 | -0.6993 | 0 |
| 34 | `CCc1nc(C2CCCN2CC(=O)Nc2nncs2)no1` (stereo not given) | 2.29 | 13.96 | 2.118 | 2.169 | 19.18 |
| 35 | `CCO[C@@H]1CC[C@H]2[C@H]1OCCN2S(=O)(=O)C1CC1` | 9.524 | - | - | 0.3699 | 4.167 |
| 36 | `COc1cc(NC(=O)N(C)C(C2CC2)C2CC2)ncn1` | 4.902 | 8.452 | 3.499 | 1.276 | 10 |
| 37 | `CCn1ccnc1CN1CCNCC1C` (stereo not given) | -1.176 | - | - | -3.686 | 5.556 |
| 38 | `O=C(O)C(F)(F)F.O=C(O)C(F)(F)F.[H][C@@]12C[C@@H](Oc3cccc(F)c3)CN1CCN(Cc1nccn1C)C2` | - | -24 | 6.31 | - | - |
| 39 | `CN(Cc1ccncc1)C1COC2(CCN(Cc3ccco3)CC2)C1` (stereo not given) | 4.132 | - | - | 0.8403 | -5.455 |
| 40 | `CCN1C(=O)CCCC12CCCN(C(=O)c1occc1C)C2` (stereo not given) | 7.767 | 8.728 | -12.09 | 5.792 | 19.23 |
| 41 | `CSCCC(=O)NS(=O)(=O)c1ccc2c(c1)OCCO2` | 0 | 14.1 | 2.806 | 11.58 | -3.774 |
| 42 | `CCOC(=O)C1CC2(CCOCC2)N2CCC(=O)N12` (stereo not given) | 4.494 | 0.2647 | -4.777 | 2.421 | 10.2 |
| 43 | `O=S(=O)(Nc1c(F)cccc1N1CCCC1)c1cncc(F)c1` | 11.49 | 26.73 | - | 0.615 | 17.74 |
| 44 | `Cc1ccccc1SC1CCN(C(=O)[C@@H]2C[C@@H](N)CN2)CC1` | 8.901 | 56.56 | 3.746 | -44.24 | 2.151 |
| 45 | `COc1ccccc1N1CCC(CNCc2c(C)nn(C)c2OC)C1` (stereo not given) | 3.529 | 9.277 | 1.52 | -1.72 | 8.73 |
| 46 | `O=C(c1ccncc1)N1CC[C@H]2[C@H]1CCN2S(=O)(=O)C1CC1` | 1.093 | - | - | 11.98 | 14.04 |
| 47 | `Cc1ccc(CN2CCN(C)c3ncccc3C2)o1` | 5.882 | 23.28 | -31.94 | 2.231 | 8.257 |
| 48 | `O=C(Cc1cccnc1)NCCSc1ccccc1F` | 6.667 | 27.94 | 0.6818 | -0.7782 | 2.703 |
| 49 | `O=S(=O)(c1cncc(F)c1)N1CCC2(CCOC2)C1` (stereo not given) | 2.083 | -2.864 | 0.1215 | 6.214 | 4.167 |
| 50 | `CC(C)n1nc(CN2CCOCC2)c2c1CN(Cc1ccsc1)C2` | 3.226 | - | - | -3.14 | 7.071 |
| 51 | `COc1ccc(-c2ccc(C(=O)O)c(F)c2)c(F)c1` | 0 | -8.884 | -0.05294 | -6.373 | -15.56 |
| 52 | `CCOc1ccc(C(=O)N2Cc3cnc(CC)nc3C2)o1` | 3.352 | 26.74 | 7.557 | -0.2571 | 8.333 |
| 53 | `C[C@H](O)CNc1cc(-c2ccncc2)ncn1` | 6.78 | 14.14 & 2.075 | -8.467 | 2.771 | 17.14 |
| 54 | `COc1ccc(C2=CCN(C(=O)CN(C)CC(N)=O)CC2)cc1` | 7.519 | 12.79 | - | 1.028 | -5.618 |
| 55 | `CN(C)Cc1nnc(C(=O)N(C)Cc2ccc(F)cc2)o1` | 10.99 | 40.9 | 1.21 | 6.379 | 7.527 |
| 56 | `CNc1ncc(-c2csc(NC(=O)C[C@H]3COCCN3)n2)cn1.Cl` | - | 10.33 & 22.51 | -21.29 | - | - |
| 57 | `COc1ccc(S(=O)(=O)N2C[C@@H]3CN(C)CCO[C@@H]3C2)cc1` | 13.97 | - | - | 2.303 | 9.615 |
| 58 | `CC(C)n1cc(CN2CCCN(C(=O)CN3CCCC3=O)CC2)cn1` | -5.233 | -17.86 | -29.96 | 9.43 | 14.29 |
| 59 | `Cc1cccc(CN2CCc3onc(Cn4cccc4)c3C2)n1.O=C(O)C(F)(F)F` | - | 7.517 | 24.99 | - | - |
| 60 | `CCN1CCN(C(=O)c2cccn2Cc2ccccc2)CC1` | 1.153 | 27.63 | -12.29 | -0.9091 | 8.929 |
| 61 | `COCC1CN(C(=O)c2cccn2C)Cc2c1cnn2CC1CC1` (stereo not given) | 7.527 | - | - | 6.105 | 22.12 |

For reference, 4 entries once more:

| structure | TcHisRS | Leishmania in macrophages | Toxoplasma | CoaBC | LiHisRS |
|---|---|---|---|---|---|
| `CCOC(=O)C1CC2(CCOCC2)N2CCC(=O)N12` (stereo not given) | 4.494 | 0.2647 | -4.777 | 2.421 | 10.2 |
| `Cc1ccc(CN2CCN(C)c3ncccc3C2)o1` | 5.882 | 23.28 | -31.94 | 2.231 | 8.257 |
| `Cc1ccccc1SC1CCN(C(=O)[C@@H]2C[C@@H](N)CN2)CC1` | 8.901 | 56.56 | 3.746 | -44.24 | 2.151 |
| `CCO[C@@H]1CC[C@H]2[C@H]1OCCN2S(=O)(=O)C1CC1` | 9.524 | - | - | 0.3699 | 4.167 |